Binding data for 2 molecules are collected here from article doi:10.1101/2021.02.05.426302.

No constants are given. Whether binding was seen depends on the method and setting. Binding seen in cells or lysates may run through a third protein. Some binding calls cover weakened binding; strength is not graded here. Sequences can lack the tags named with a protein.

Experiment in all cases: co-IP
Experiment [1] concerns the target AvrRpm1-GFP (Pseudomonas syringae) (UniProt Q7BE94).
Experiment [2] addresses T1, SOBER1-FLAG (SUPPRESSOR OF AVRBST-ELICITED … 1) (Arabidopsis thaliana) (UniProt Q84WK4).
T1 sequence: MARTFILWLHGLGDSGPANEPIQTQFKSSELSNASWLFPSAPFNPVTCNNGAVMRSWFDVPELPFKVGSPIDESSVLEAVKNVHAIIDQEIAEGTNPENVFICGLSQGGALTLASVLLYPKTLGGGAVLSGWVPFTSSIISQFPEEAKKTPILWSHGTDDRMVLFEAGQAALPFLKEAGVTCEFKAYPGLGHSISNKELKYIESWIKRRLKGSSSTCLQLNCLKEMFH

Experiment [3] deals with SOBER1^H192A-FLAG (Arabidopsis thaliana) (UniProt Q84WK4).

B1: FLAG-RIN4 (RPM1-… PROTEIN 4) (protein, UniProt Q8GYN5 1-211)
chain: MARSNVPKFGNWEAEENVPYTAYFDKARKTRAPGSKIMNPNDPEYNSDSQSQAPPHPPSSRTKPEQVDTVRRSREHMRSREESELKQFGDAGGSSNEAANKRQGRASQNNSYDNKSPLHKNSYDGTGKSRPKPTNLRADESPEKVTVVPKFGDWDENNPSSADGYTHIFNKVREERSSGANVSGSSRTPTHQSSRNPNNTSSCCCFGFGGK
Turning to B1, the binding result in experiment [1] is listed as “binds”.

B2: MYC-RIN4 (protein, UniProt Q8GYN5 1-211)
chain: B1 chain
B2: the binding result in experiment [2] and in experiment [3] was “binds” each time.
